# Patent US9981968B2, “Substituted pyrrolo[2,3-d]pyrimidines for the treatment of cancer and proliferative disorders” (Northwestern University, priority 2013, dated 2018)
# For at least one compound, name, drawing or mass did not settle the structure.
# Columns and labels:
# Type in all cases: cell-based, human
# [1] = tested on: NCI-60 Cell Lines; test: Inhibiting growth of NCI-60 cell lines (panel summary); conditions: 10 μM, compared to doxorubicin
# Description: NUCL 381-3 and NUCL 383-3 (referred to as “NUCC-00381” and “NUCC-000383” above, respectively) were administered to a variety of cancer cell lines in order to test their ability to inhibit cell growth as compared to doxorubicin.
# Tested cell lines included, Leukemia: CCRF-CEM, HL-60(TB), MOLT-4, RPMI-8226 and SR; Non-Small Cell Lung: A549/ATCC, EKVX, HOP-62, HOP-92, NCI-H226, NCI-H23, NCI-H322M, NCI-H460 and NCI-H522; Colon: COLO 205, HCC-2998, HCT-116, HCT-15. HT29, KM12 and SW-620; CNS: SF-268, SF-295, SF-539, SNB-19, SNB-75 and U251; Melanoma: LOX IMVI, MALME-3M, M14, MDA-MB-435, SK-MEL-2, SK-MEL-28, SK-MEL-5, UACC-257 and UACC-62; Ovarian: IGR-OV1, OVCAR-3, OVCAR-4, OVCAR-5, OVCAR-8. NCI/ADR-RES and SK-OV-3; Renal: 786-0, A498, ACHN, CAKI-1, RXF 393, SN12C, TK-10 and UO-31; Prostate: DU-145 and PC-3; and Breast: MCF7, MDA-MB-231/ATCC, MDA-MB-468, HS 578T, BT-549 and T-47D.
# The cells were cultured in RPMI1640 media supplemented with 10% Fetal Bovine Serum (FBS), 2 mM glutamine and with 5% CO2 and 37° C. […]
# Cells were plated in 96 well plates. […] One hundred microliters of Trizma base was added to each well and plates were read at 515 nm.
# Percent of growth was calculated by the following formulas: [Ti/C]×100, where: Tz=absorbance readings for wells at time zero without treatment; C=absorbance readings of untreated cells (without treatment); and Ti=absorbance reading of wells with treatment.
# [2] = tested on: U937 cell lines; test: Immunoblot of PARP cleavage and cleaved caspase 3; conditions: U937 cell lysates, FIG. 17
# Description: FIG. 17. Immunoblot of cell lysates from U937 cell lines treated with Compounds 381, 383, 409 (as test compounds) and Compound 501 (as a negative control) as compared to 8-amino adenosine (8NH2-Ado) and 8-chloro adenosine (8Cl-Ado) (as positive controls). The impact of the compounds on proteins associated with cell death was assessed via performing an immunoblot. (See FIG. 17). PARP cleavage indicated activation of the caspase cascade and cell death by induction of apoptosis. Similarly detection of cleaved caspase 3 indicated activation of caspase activity and cell death by apoptosis. GAPDH was included as a loading control to indicate approximately equal loading of protein.
# [3] = tested on: MM.1S cells; test: MTS CellTiter 96 cell proliferation assay, MM.1S; conditions: 0.1-10 μM, FIG. 1, compared with 8-amino adenosine
# Description: Cell viability was assessed by MTS assay as follows.
# The MTS CellTiter 96 assay is a colorimetric method to assess the number of viable cells based on the conversion of a tetrazolium compound (MTS) to a formazan product by the mitochondrial dehydrogenase enzyme of the cells. This assay is used to determine the number of viable cells remaining following a drug treatment in comparison to the number of viable cells that are only treated with the drug vehicle (control cells). The amount of formazan product in the control cells is normalized to 100% and the amount of formazan in the drug treated cells is expressed as a percentage of control. This is used to generate dose response curve and estimate the drug concentration that produced a 50% decrease in the number of viable cells.
# [4] = tested on: acute leukemia cell lines (THP-1, K562, Kasumi-1, and U937); test: Inhibition of viability of acute leukemia cell lines; conditions: THP-1, K562, Kasumi-1, U937
# Description: Compounds 381, 383, 409 (as test compounds) and Compound 501 (as a negative control) were administered to a variety of acute leukemia cell lines (THP-1. K562, Kasumi-1, and U937) in order to test their ability to inhibit cell growth as compared to 8-amino adenosine (8NH2-Ado) and 8-chloro adenosine (8Cl-Ado) (as positive controls) as in the previous Examples.
compound,measurement,setting,value
CS(=O)(=O)N1CCC(Cn2cc(C(F)(F)F)c3c(Cl)ncnc32)CC1 [NUCC-0000383],cell viability across NCI-60 cell lines,[1],reduce cell viability for a number of cell lines
same,"induction of apoptosis (PARP cleavage, cleaved caspase 3)",[2],Induction of apoptosis was observed
same,decreasing cell proliferation,[3],as effective in decreasing cell proliferation as 8-amine-adenosine
same,cell viability,[4]; FIGS. 11-14,reduce cell viability significantly
same,inhibitory activity relative to positive controls,[4]; versus 8NH2-Ado and 8Cl-Ado,inhibitory activities approaching those of 8NH2-Ado and 8Cl-Ado
